# In the supplement of paper PMC8728848:
# This is one part of the list.
# B1: FimA (Actinomyces oris) (protein)
# chain: MHHHHHHSSGVDLGTENLYFQSNAETPNYGNIKTDATGSLVIHKHLTGGGKDIGTPTGTAQNADDKGPAVEGVVFTAYPITDINLKDPAGWDTISNLSRTGVPDSACANPAAPTLGAHQFGTPKVSPATTKEGLATITEMPVQAYLVCETTTPGDIVQKAKPFVVTIPHPNTAAGADGQWIYDVNVYPKNEAIDVDKTIQAQKLNGYGVGSLIKFPVESTAPTLDAKSFYKYFQLKDTLDERLSEVTATDVSLEGTPLQPTDYKVETKQQTVTVTFTAEGLKKIKAAPGKKVSAVFQGKVTKAGNGAITNRAQVISDTLYAEQPPTPETPPTDPENPPTSDEVISRWGDLSIKKVDTHQQGQTKAGLQGAQFQLYKAKNAYANTCSNEKEGAPIAINGQTTLTTDAQGAIDIKGLFISDSIDGADRDNQVNAMERCYVLVETKAPAGYVLPAGNGAATPVKVKAGEETTDNVTVENTKQSVPGLPLTG
# What was measured:
# Experiment in all cases: glycan array binding signal (z-score within array); higher = stronger binding
# Details in all cases: glycan notation: IUPAC condensed, linker removed
# [1] = target: GalNAc(b1-4)GlcNAc(b1-2)Man
# Method in brief: (§1)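 The binding signal is a Z-score computed within each array. Data were drawn from 3228 arrays in the Consortium for Functional Glycomics database, restricted to those with a known protein sequence. Scores were averaged over arrays of the same protein sequence at different concentrations or buffers, and over linkers, and negative values can be taken as non-binding.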
# [2] = target: GalNAc(b1-4)GlcNAc(b1-2)Man(a1-3)[GalNAc(b1-4)GlcNAc(b1-2)Man(a1-6)]Man(b1-4)GlcNAc(b1-4)GlcNAc
# Method in brief: as §1
# [3] = target: GalNAc(b1-4)GlcNAc(b1-3)GalNAc(b1-4)GlcNAc
# Method in brief: as §1
# [4] = target: GalNAc(b1-4)GlcNAc6S
# Method in brief: as §1
# [5] = target: GalNAc(b1-6)GalNAc
# Method in brief: as §1
# [6] = target: GalNAc3S(b1-4)GlcNAc
# Method in brief: as §1
# [7] = target: GalNAc3S(b1-4)GlcNAc3S
# Method in brief: as §1
# [8] = target: GalNAc3S(b1-4)[Fuc(a1-3)]GlcNAc
# Method in brief: as §1
# [9] = target: GalNAc4S6S(b1-4)GlcNAc
# Method in brief: as §1
# [10] = target: GalNAc6S(b1-4)GlcNAc
# Method in brief: as §1
# [11] = target: Glc(a1-4)Glc
# Method in brief: as §1
# [12] = target: Glc(a1-4)Glc(a1-4)Glc(a1-4)Glc
# Method in brief: as §1
# [13] = target: Glc(a1-6)Glc(a1-6)Glc
# Method in brief: as §1
# [14] = target: Glc(a1-6)Glc(a1-6)Glc(a1-6)Glc
# Method in brief: as §1
# [15] = target: Glc(b1-4)Glc
# Method in brief: as §1
# [16] = target: Glc(b1-6)Glc
# Method in brief: as §1
# [17] = target: GlcA(b1-3)Gal
# Method in brief: as §1
# [18] = target: GlcA(b1-3)GlcNAc
# Method in brief: as §1
# [19] = target: GlcA(b1-6)Gal
# Method in brief: as §1
# [20] = target: GlcA3S(b1-3)Gal(b1-4)GlcNAc(b1-2)Man
# Method in brief: as §1
# [21] = target: GlcA3S(b1-3)Gal(b1-4)GlcNAc(b1-3)Gal(b1-4)Glc
# Method in brief: as §1
# [22] = target: GlcNAc(a1-3)Gal(b1-4)GlcNAc
# Method in brief: as §1
# [23] = target: GlcNAc(a1-4)Gal(b1-3)GlcNAc
# Method in brief: as §1
# [24] = target: GlcNAc(a1-4)Gal(b1-4)GalNAc
# Method in brief: as §1
# [25] = target: GlcNAc(a1-4)Gal(b1-4)GlcNAc
# Method in brief: as §1
# [26] = target: GlcNAc(a1-4)Gal(b1-4)GlcNAc(b1-3)Gal(b1-4)Glc
# Method in brief: as §1
# [27] = target: GlcNAc(a1-4)Gal(b1-4)GlcNAc(b1-3)Gal(b1-4)GlcNAc
# Method in brief: as §1
# [28] = target: GlcNAc(a1-4)Gal(b1-4)GlcNAc(b1-3)Gal(b1-4)GlcNAc(b1-3)Gal(b1-4)GlcNAc
# Method in brief: as §1
# [29] = target: GlcNAc(a1-4)Gal(b1-4)GlcNAc(b1-3)Gal(b1-4)[Fuc(a1-3)]GlcNAc(b1-3)Gal(b1-4)[Fuc(a1-3)]GlcNAc
# Method in brief: as §1
# [30] = target: GlcNAc(a1-6)Gal(b1-4)GlcNAc
# Method in brief: as §1
# [31] = target: GlcNAc(b1-2)Gal(b1-3)GalNAc
# Method in brief: as §1
# [32] = target: GlcNAc(b1-2)Man(a1-3)[GlcNAc(b1-2)Man(a1-6)]Man(b1-4)GlcNAc(b1-4)GlcNAc
# Method in brief: as §1
# [33] = target: GlcNAc(b1-2)Man(a1-3)[GlcNAc(b1-2)Man(a1-6)]Man(b1-4)GlcNAc(b1-4)[Fuc(a1-6)]GlcNAc
# Method in brief: as §1
# [34] = target: GlcNAc(b1-2)Man(a1-3)[GlcNAc(b1-4)][GlcNAc(b1-2)Man(a1-6)]Man(b1-4)GlcNAc(b1-4)GlcNAc
# Method in brief: as §1
# [35] = target: GlcNAc(b1-2)Man(a1-3)[GlcNAc(b1-4)][GlcNAc(b1-2)Man(a1-6)]Man(b1-4)GlcNAc(b1-4)[Fuc(a1-6)]GlcNAc
# Method in brief: as §1
# [36] = target: GlcNAc(b1-2)[GlcNAc(b1-4)]Man(a1-3)[GlcNAc(b1-2)Man(a1-6)]Man(b1-4)GlcNAc(b1-4)GlcNAc
# Method in brief: as §1
# [37] = target: GlcNAc(b1-2)[GlcNAc(b1-4)]Man(a1-3)[GlcNAc(b1-4)][GlcNAc(b1-2)Man(a1-6)]Man(b1-4)GlcNAc(b1-4)GlcNAc
# Method in brief: as §1
binder,measurement,setting,value
B1,glycan array binding signal (z-score),[1],-0.783
same,glycan array binding signal (z-score),[2],0.721
same,glycan array binding signal (z-score),[3],0.373
same,glycan array binding signal (z-score),[4],4.1
same,glycan array binding signal (z-score),[5],0.546
same,glycan array binding signal (z-score),[6],-0.397
same,glycan array binding signal (z-score),[7],-0.503
same,glycan array binding signal (z-score),[8],-0.099
same,glycan array binding signal (z-score),[9],-0.813
same,glycan array binding signal (z-score),[10],-0.318
same,glycan array binding signal (z-score),[11],0.166
same,glycan array binding signal (z-score),[12],0.198
same,glycan array binding signal (z-score),[13],-0.994
same,glycan array binding signal (z-score),[14],1.15
same,glycan array binding signal (z-score),[15],-0.738
same,glycan array binding signal (z-score),[16],0.043
same,glycan array binding signal (z-score),[17],0.311
same,glycan array binding signal (z-score),[18],-0.486
same,glycan array binding signal (z-score),[19],-0.059
same,glycan array binding signal (z-score),[20],0.808
same,glycan array binding signal (z-score),[21],0.07
same,glycan array binding signal (z-score),[22],-0.391
same,glycan array binding signal (z-score),[23],1.08
same,glycan array binding signal (z-score),[24],0.996
same,glycan array binding signal (z-score),[25],-0.177
same,glycan array binding signal (z-score),[26],-0.306
same,glycan array binding signal (z-score),[27],3.19
same,glycan array binding signal (z-score),[28],-0.925
same,glycan array binding signal (z-score),[29],-0.139
same,glycan array binding signal (z-score),[30],-1.18
same,glycan array binding signal (z-score),[31],-0.429
same,glycan array binding signal (z-score),[32],-0.333
same,glycan array binding signal (z-score),[33],-0.129
same,glycan array binding signal (z-score),[34],0.325
same,glycan array binding signal (z-score),[35],-0.549
same,glycan array binding signal (z-score),[36],-0.403
same,glycan array binding signal (z-score),[37],-0.504

# Part of the list above, as tab-separated lines:
binder	measurement	setting	value
B1	glycan array binding signal (z-score)	[14]	1.15
same	glycan array binding signal (z-score)	[25]	-0.177
